{"source": "PubChem BioAssay AID602196 (INSERM, 2012)", "purpose": "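Genes whose knock-down alters cisplatin killing of lung cancer cells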", "system": "human A549 lung cancer cells", "reagent": "siRNA pair against human genes", "duration": "48 h transfection before cisplatin; time from cisplatin to read-out not stated", "treatment": "cisplatin at a dose killing half of control-siRNA cells; exact dose and duration not given", "measurement": "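Cisplatin cell death as a shift from the 50% death seen with control siRNA; siRNAs toxic or growth-blocking alone scored 0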", "reading the numbers": "two-siRNA summed score (-2 to +2): higher = both siRNAs protect from cisplatin killing; -2 means both sensitise", "call rule": "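siRNAs harmful alone (LDH or WST-1) get 0; others get +1 for less and -1 for more cisplatin killing; genes are active when the two siRNAs give the same sign, summing to ±2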", "calls": "active = both siRNAs shift cisplatin killing the same way; inactive = no consistent shift, or siRNA harmful alone", "note": "In all, the deposit lists about 23,000 reagents; this is a part drawn at random. Over the whole deposit, 455 (2%) got an active call. 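Active includes both protection and sensitisation; some change values fall well beyond the stated -50 to +50 range.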 Further read-outs or replicates are left out here. No sequences are given here. Not given: the amount of reagent."}
{"gene": "LOC401625", "two-siRNA summed score (-2 to +2)": 1, "call": "inactive"}
{"gene": "COL25A1 (GeneID 84570)", "two-siRNA summed score (-2 to +2)": 0, "call": "inactive"}
{"gene": "IFNA21 (GeneID 3452)", "two-siRNA summed score (-2 to +2)": -1, "call": "inactive"}
{"gene": "HMBS (GeneID 3145)", "two-siRNA summed score (-2 to +2)": -1, "call": "inactive"}
{"gene": "C20orf173 (GeneID 140873)", "two-siRNA summed score (-2 to +2)": 0, "call": "inactive"}
{"gene": "LINC00671 (GeneID 388387)", "two-siRNA summed score (-2 to +2)": 0, "call": "inactive"}
{"gene": "LOC441995", "two-siRNA summed score (-2 to +2)": 0, "call": "inactive"}
{"gene": "RABL2A (GeneID 11159)", "two-siRNA summed score (-2 to +2)": 0, "call": "inactive"}
{"gene": "SLC8A1 (GeneID 6546)", "two-siRNA summed score (-2 to +2)": 1, "call": "inactive"}
{"gene": "TMEM26 (GeneID 219623)", "two-siRNA summed score (-2 to +2)": 0, "call": "inactive"}
{"gene": "UBC (GeneID 7316)", "two-siRNA summed score (-2 to +2)": -1, "call": "inactive"}
{"gene": "POLR2H (GeneID 5437)", "two-siRNA summed score (-2 to +2)": 0, "call": "inactive"}
{"gene": "LOC440322", "two-siRNA summed score (-2 to +2)": 0, "call": "inactive"}
{"gene": "EPB41 (GeneID 2035)", "two-siRNA summed score (-2 to +2)": 0, "call": "inactive"}
{"gene": "CHMP4B (GeneID 128866)", "two-siRNA summed score (-2 to +2)": 0, "call": "inactive"}
{"gene": "OR5B17 (GeneID 219965)", "two-siRNA summed score (-2 to +2)": 0, "call": "inactive"}
{"gene": "PCDHGB2 (GeneID 56103)", "two-siRNA summed score (-2 to +2)": 0, "call": "inactive"}
{"gene": "IL22RA1 (GeneID 58985)", "two-siRNA summed score (-2 to +2)": 0, "call": "inactive"}
{"gene": "METRN (GeneID 79006)", "two-siRNA summed score (-2 to +2)": 0, "call": "inactive"}
{"gene": "LINC01181 (GeneID 379034)", "two-siRNA summed score (-2 to +2)": 0, "call": "inactive"}
{"gene": "LCMT1 (GeneID 51451)", "two-siRNA summed score (-2 to +2)": 1, "call": "inactive"}
{"gene": "SNX7 (GeneID 51375)", "two-siRNA summed score (-2 to +2)": 1, "call": "inactive"}
{"gene": "LOC343531", "two-siRNA summed score (-2 to +2)": 1, "call": "inactive"}
{"gene": "LOC392222", "two-siRNA summed score (-2 to +2)": 1, "call": "inactive"}
{"gene": "LOC391807", "two-siRNA summed score (-2 to +2)": 1, "call": "inactive"}
{"gene": "FUT9 (GeneID 10690)", "two-siRNA summed score (-2 to +2)": 1, "call": "inactive"}
{"gene": "SPDEF (GeneID 25803)", "two-siRNA summed score (-2 to +2)": -1, "call": "inactive"}
{"gene": "ODAPH (GeneID 152816)", "two-siRNA summed score (-2 to +2)": 0, "call": "inactive"}
{"gene": "SKIL (GeneID 6498)", "two-siRNA summed score (-2 to +2)": 0, "call": "inactive"}
{"gene": "TECPR2 (GeneID 9895)", "two-siRNA summed score (-2 to +2)": 0, "call": "inactive"}
{"gene": "DMAC1 (GeneID 90871)", "two-siRNA summed score (-2 to +2)": 0, "call": "inactive"}

Records above whose gene name begins with O or o (2):
{"gene": "OR5B17 (GeneID 219965)", "two-siRNA summed score (-2 to +2)": 0, "call": "inactive"}
{"gene": "ODAPH (GeneID 152816)", "two-siRNA summed score (-2 to +2)": 0, "call": "inactive"}
